This is an account of results in publication PMC9737020.

No constants are given. Whether binding was seen depends on the method and setting. Binding seen in cells or lysates may run through a third protein. Some entries that bind do so weakly or less than the wild type.

Test [1] addresses T1, nucleosome assembly protein 1 like 1 (NAP1L1) (human (endogenous in CD34+-derived megakaryocytes)) (UniProt P55209).
T1 sequence: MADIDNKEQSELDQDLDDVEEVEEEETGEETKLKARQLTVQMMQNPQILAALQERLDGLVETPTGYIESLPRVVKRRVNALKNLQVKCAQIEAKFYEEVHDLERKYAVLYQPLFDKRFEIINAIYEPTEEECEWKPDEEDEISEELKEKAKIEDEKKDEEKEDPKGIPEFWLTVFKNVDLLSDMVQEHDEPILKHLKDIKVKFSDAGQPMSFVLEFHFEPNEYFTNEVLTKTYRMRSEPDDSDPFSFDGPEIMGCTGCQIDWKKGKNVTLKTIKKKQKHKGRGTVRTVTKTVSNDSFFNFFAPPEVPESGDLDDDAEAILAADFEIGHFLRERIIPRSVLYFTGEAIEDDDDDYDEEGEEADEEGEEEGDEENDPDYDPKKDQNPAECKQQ
Description: co-IP; co-IP from lysate of CD34+-derived human megakaryocytes with anti-NAP1L1 on protein G magnetic beads; cells with or without LPS treatment.

Test [2] concerns the target T2, nucleosome assembly protein 1 like 1 (NAP1L1) (human (endogenous in platelets)) (UniProt P55209).
T2 sequence: T1 sequence
Put plainly: co-IP; co-IP from human platelet whole-cell lysate with anti-NAP1L1 on protein G magnetic beads (4 h, 4 °C); immunoblot with anti-PDC-E2; controls: isotype IgG and beads only. A general note: Immunoblotting shows a protein as a band on a membrane.

B1: dihydrolipoyllysine-residue acetyltransferase component of pyruvate dehydrogenase complex (PDC-E2) (protein, UniProt P10515 87-647)
chain: SLPPHQKVPLPSLSPTMQAGTIARWEKKEGDKINEGDLIAEVETDKATVGFESLEECYMAKILVAEGTRDVPIGAIICITVGKPEDIEAFKNYTLDSSAAPTPQAAPAPTPAATASPPTPSAQAPGSSYPPHMQVLLPALSPTMTMGTVQRWEKKVGEKLSEGDLLAEIETDKATIGFEVQEEGYLAKILVPEGTRDVPLGTPLCIIVEKEADISAFADYRPTEVTDLKPQVPPPTPPPVAAVPPTPQPLAPTPSAPCPATPAGPKGRVFVSPLAKKLAVEKGIDLTQVKGTGPDGRITKKDIDSFVPSKVAPAPAAVVPPTGPGMAPVPTGVFTDIPISNIRRVIAQRLMQSKQTIPHYYLSIDVNMGEVLLVRKELNKILEGRSKISVNDFIIKASALACLKVPEANSSWMDTVIRQNHVVDVSVAVSTPAGLITPIVFNAHIKGVETIANDVVSLATKAREGKLQPHEFQGGTFTISNLGMFGIKNFSAIINPPQACILAIGASEDKLVPADNEKGFDVASMMSVTLSCDHRVVDGAVGAQWLAEFRKYLEKPITMLL
Consider B1, for which the binding result in test [1] and in test [2] was “binds” each time.
